Source: article PMC11741006 (RSC Chemical Biology, 2025)

Assay: general procedure: Fmoc solid-phase peptide synthesis; Rink-Amide ChemMatrix resin (0.49 mmol/g; main text 0.45 mmol/g); DIC/Oxyma Pure
Details: whole synthesis; for final HPLC purity: analytical RP-HPLC
[1] = scale of the general procedure 0.1 mmol, run 1
[2] = scale of the general procedure 0.1 mmol

Row | Substance | final HPLC purity [1] | isolated yield [1] | final HPLC purity [2] | isolated yield [2] | isolated yield (scale 0.1 mmol)
1 | FITC Ahx Leu Thr Phe R8 Glu Tyr Trp Ala Gln Cba S5 Ser Ala Ala NH2 [2FITC] | > 99% | 4% |  |  | 
2 | FITC Ahx Leu Thr Ala S7 Glu Tyr Trp Ala Gln Cba S7 Ser Ala Ala NH2 |  |  | > 98% | 9% | 
3 | Ac Leu Thr Phe Glu His Tyr Trp Ala Gln Leu Thr Ser NH2 |  |  | > 99% |  | 23%
4 | Ac Leu Thr Phe R8 Glu Tyr Trp Ala Gln Cba S5 Ser Ala Ala NH2 [3] | > 97% | 2% |  |  | 
5 | FITC Ahx Leu Thr Phe S7 Glu Tyr Trp Ala Gln Cba S7 Ser Ala Ala NH2 |  |  | > 97% | 9% | 
6 | Ac Leu Thr Phe R8 Glu Tyr Trp Ala Gln Cba S5 Ser Ala Ala NH2 [2] | > 99% | 4% |  |  | 
7 | Ac Leu Thr Phe S7 Glu Tyr Trp Ala Gln Cba S7 Ser Ala Ala NH2 |  |  | > 97% | 10% | 
8 | FITC Ahx Leu Thr Phe Glu His Tyr Trp Ala Gln Leu Thr Ser NH2 |  |  | > 99% |  | 22%
9 | Ac Leu Thr Ala S7 Glu Tyr Trp Ala Gln Cba S7 Ser Ala Ala NH2 |  |  | > 99% | 11% | 
10 | FITC Ahx Leu Thr Phe R8 Glu Tyr Trp Ala Gln Cba S5 Ser Ala Ala NH2 [3FITC] | > 97% | 2% |  |  | 
